Reference: article PMC12675664
These are yes or no findings as the source states them, for the method shown. In cells and extracts the contact can be indirect. A yes stands for co-enrichment or nearness to the bait. Other partners may have been found. Sequences can lack the tags named with a protein.

Biological target: T1, cell division cycle 6 (CDC6) tagged with HA (human) (UniProt Q99741)
T1 sequence: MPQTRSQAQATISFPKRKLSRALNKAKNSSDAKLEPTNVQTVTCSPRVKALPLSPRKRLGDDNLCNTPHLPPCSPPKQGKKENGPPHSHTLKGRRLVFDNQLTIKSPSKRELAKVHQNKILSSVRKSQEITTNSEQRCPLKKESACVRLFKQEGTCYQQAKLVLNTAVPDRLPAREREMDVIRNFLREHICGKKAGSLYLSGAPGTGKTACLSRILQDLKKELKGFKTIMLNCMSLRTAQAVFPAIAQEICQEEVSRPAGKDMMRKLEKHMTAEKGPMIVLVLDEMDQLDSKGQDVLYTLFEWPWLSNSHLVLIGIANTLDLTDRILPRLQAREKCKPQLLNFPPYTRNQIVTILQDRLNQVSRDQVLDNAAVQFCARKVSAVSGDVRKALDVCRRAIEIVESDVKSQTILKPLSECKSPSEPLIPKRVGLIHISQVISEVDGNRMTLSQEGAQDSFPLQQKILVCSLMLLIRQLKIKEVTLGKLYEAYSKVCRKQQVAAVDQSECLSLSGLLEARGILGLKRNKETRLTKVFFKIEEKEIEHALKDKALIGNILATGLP
Experiment: affinity purification with mass spectrometry; HEK293T transfected with CDC6-HA for 48 h, lysed in western-IP lysis buffer; anti-HA magnetic beads overnight; SDS-PAGE, silver stain, differential band (about 40-55 kDa) cut out and analysed by LC-MS/MS

B1: tropomodulin-3 (Tmod3), endogenous in HEK293T (protein, UniProt Q9NYL9 1-352)
chain: MALPFRKDLEKYKDLDEDELLGNLSETELKQLETVLDDLDPENALLPAGFRQKNQTSKSTTGPFDREHLLSYLEKEALEHKDREDYVPYTGEKKGKIFIPKQKPVQTFTEEKVSLDPELEEALTSASDTELCDLAAILGMHNLITNTKFCNIMGSSNGVDQEHFSNVVKGEKILPVFDEPPNPTNVEESLKRTKENDAHLVEVNLNNIKNIPIPTLKDFAKALETNTHVKCFSLAATRSNDPVATAFAEMLKVNKTLKSLNVESNFITGVGILALIDALRDNETLAELKIDNQRQQLGTAVELEMAKMLEENTNILKFGYQFTQQGPRTRAANAITKNNDLVRKRRVEGDHQ
binding: binds
